# Where a chain is given by its changes, count along the chain named. Results are given in words; binding and its absence hold for the method and conditions named. Some binding calls cover weakened binding; strength is not graded here.
# By UniProt entry, the sequences of proteins in these tests, tags left out. Where a name states a change or a piece, a line headed by the entry shows the natural chain unless it says otherwise. Chains listed by the source or under a name are the forms on record and can include a tag or linker.
# recombinant cynomolgus PD-L1-FLAG-HIS (G7PSE7, form named): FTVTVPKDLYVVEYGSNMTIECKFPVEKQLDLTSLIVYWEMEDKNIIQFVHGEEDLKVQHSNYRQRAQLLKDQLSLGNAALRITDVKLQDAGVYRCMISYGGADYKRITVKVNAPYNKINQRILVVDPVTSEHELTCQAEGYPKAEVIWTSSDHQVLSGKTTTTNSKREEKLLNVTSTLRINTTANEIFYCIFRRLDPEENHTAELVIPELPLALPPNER
# B1: anti-PD-L1 human monoclonal antibody 1B3 (antibody, V domains shown)
# VH: EVQLVESGGGLVQPGGSLRLSCAASGGTISTSWMSWVRQAPGKGLEWVANIKQDGSEKYYVDSVKGRFTISRDNAKNSLYLQMNSLRVEDTAMYYCARDRPVAGASALWGQGTLVTVSS
# VL: DIQMTQSPSTLSASVGDRVTITCRASQSISGWLAWYQQKPGKAPKLLIYKASSLESGVPSRFSGSGSGTEFTLTISSLQPDDFATYYCQQYYGSSRTFGQGTNVEIK
# B2: anti-PD-L1 human monoclonal antibody 4A3 (antibody, V domains shown)
# VH: B1 VH with T28I, T31S, N77D, S78L, M93L
# VL: B1 VL
# B3: anti-PD-L1 human monoclonal antibody 3B6 (antibody, V domains shown)
# VH: B1 VH with I29T, S32Y, Y80N, M93I
# VL: B1 VL
# B4: anti-PD-L1 human monoclonal antibody 8B1 (antibody, V domains shown)
# VH: B1 VH with Q3R, G27D, T28I, S32H, S85T, M93I, A97T
# VL: B1 VL with S60L
# B5: anti-PD-L1 human monoclonal antibody 7H7 (antibody, V domains shown)
# VH: B1 VH with M93I
# VL: B1 VL with P40Q
# B6: anti-PD-L1 human monoclonal antibody 9H9 (antibody, V domains shown)
# VH: B1 VH with T28I, S32Y
# VL: B1 VL
# Target: recombinant cynomolgus PD-L1-FLAG-HIS (cynomolgus) (UniProt G7PSE7)
# Test: ELISA, plate coated with recombinant cynomolgus PD-L1-FLAG-HIS; hybridoma supernatants
row,binding,Binder
1,binds,B1
2,binds,B2
3,binds,B3
4,binds,B4
5,binds,B5
6,binds,B6

# Target: recombinant cynomolgus PD-L1-FLAG-HIS (cynomolgus) (UniProt G7PSE7)
# Test: ELISA, plate coated with recombinant cynomolgus PD-L1-FLAG-HIS; hybridoma supernatants, anti-rat IgG Fc-HRP detection
row,binding,Binder
1,binds,B1
2,binds,B2
3,binds,B3
4,binds,B4
5,binds,B5
6,binds,B6
